PubChem BioAssay AID1508597, Cure First – 2020
Assay: 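Genes whose silencing sensitises or protects ovarian cancer cells against rucaparib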 (primary screen). Cells: human ovarian carcinoma lines grown from tumours: OCI-P5x (papillary serous) and OCI-C5x (clear cell). Knock-down reagent: siRNA pool against human genes, 1.25 pmol siRNA per well. Timing: 72 h or 96 h, depending on the cell culture. Challenge: rucaparib 20 µM (about IC30) or vehicle, present until read-out. Rucaparib or vehicle: Vehicle. Cell line: OCI-P5x (serous). Read-out: 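Luminescent ATP-based viability assay read 72 or 96 h after transfection, depending on culture, given as normalised percent viability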. Scale: viability, normalised: higher = more viable cells remaining. Call rule: 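a well counts as a hit if its normalised viability is under 80 percent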. Calls: active = viability under 80%; inactive = viability 80% or more.
This is a random part of the about 2,100 reagents, in one setting of the screen. 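Calls flag viability under 80% in either arm, not effects specific to rucaparib; the reference for percent is not stated.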 Some reagents were tested in more than one well and are listed for each. Not stated in the record: the 100% reference.

gene | technical replicate | viability, normalised (%) | outcome
SMYD4 | 1 | 42.4 | active
SMYD4 | 2 | 36.2 | active
SMYD4 | 3 | 45.5 | active
MEN1 | 1 | 61.2 | active
MEN1 | 2 | 69.8 | active
MEN1 | 3 | 66.7 | active
USB1 | 1 | 67.8 | active
USB1 | 2 | 74 | active
USB1 | 3 | 80.5 | inactive
FNTB | 1 | 55.3 | active
FNTB | 2 | 50.4 | active
FNTB | 3 | 50.3 | active
ACTR5 | 1 | 47.9 | active
ACTR5 | 2 | 49.2 | active
ACTR5 | 3 | 60.4 | active
MYO3B | 1 | 92.2 | inactive
MYO3B | 1 | 67.6 | active
MYO3B | 2 | 74 | active
MYO3B | 2 | 106 | inactive
MYO3B | 3 | 97 | inactive
MYO3B | 3 | 84.8 | inactive
HDGF | 1 | 69.8 | active
HDGF | 2 | 84 | inactive
HDGF | 3 | 67.2 | active
BCKDK | 1 | 61.2 | active
BCKDK | 2 | 58 | active
BCKDK | 3 | 68.5 | active

The list goes on (7 carried over from the part before).
gene | technical replicate | viability, normalised (%) | outcome
MYO3B | 3 | 84.8 | inactive
HDGF | 1 | 69.8 | active
HDGF | 2 | 84 | inactive
HDGF | 3 | 67.2 | active
BCKDK | 1 | 61.2 | active
BCKDK | 2 | 58 | active
BCKDK | 3 | 68.5 | active
PIP5K1B | 1 | 70.5 | active
PIP5K1B | 2 | 56.2 | active
PIP5K1B | 3 | 56.3 | active
SPOCK2 | 1 | 58.3 | active
SPOCK2 | 2 | 51.7 | active
SPOCK2 | 3 | 72.1 | active
TOPBP1 | 1 | 61 | active
TOPBP1 | 2 | 61 | active
TOPBP1 | 3 | 43.4 | active
TWF1 | 1 | 82.3 | inactive
TWF1 | 2 | 84.7 | inactive
TWF1 | 3 | 84.6 | inactive
STK38 | 1 | 65.8 | active
STK38 | 2 | 70.1 | active
STK38 | 3 | 63.6 | active
TK2 | 1 | 52.2 | active
TK2 | 2 | 48.3 | active
TK2 | 3 | 49.2 | active
TSSK2 | 1 | 107 | inactive
TSSK2 | 2 | 94.6 | inactive
TSSK2 | 3 | 107 | inactive
KAT5 | 1 | 64.1 | active
KAT5 | 2 | 78.2 | active
KAT5 | 3 | 83.7 | inactive
ROR1 | 1 | 62.8 | active
ROR1 | 2 | 61.6 | active
ROR1 | 3 | 66 | active
LMTK2 | 1 | 97 | inactive
LMTK2 | 2 | 80.3 | inactive
LMTK2 | 3 | 72.2 | active
